# Source: PubChem BioAssay AID743255 (National Center for Advancing Translational Sciences (NCATS), 2014)
# The chains behind the UniProt entries cited, without tags or fusion partners. Where a name states a change or a piece, a line headed by the entry shows the natural chain unless it says otherwise.
# UniProt O94782: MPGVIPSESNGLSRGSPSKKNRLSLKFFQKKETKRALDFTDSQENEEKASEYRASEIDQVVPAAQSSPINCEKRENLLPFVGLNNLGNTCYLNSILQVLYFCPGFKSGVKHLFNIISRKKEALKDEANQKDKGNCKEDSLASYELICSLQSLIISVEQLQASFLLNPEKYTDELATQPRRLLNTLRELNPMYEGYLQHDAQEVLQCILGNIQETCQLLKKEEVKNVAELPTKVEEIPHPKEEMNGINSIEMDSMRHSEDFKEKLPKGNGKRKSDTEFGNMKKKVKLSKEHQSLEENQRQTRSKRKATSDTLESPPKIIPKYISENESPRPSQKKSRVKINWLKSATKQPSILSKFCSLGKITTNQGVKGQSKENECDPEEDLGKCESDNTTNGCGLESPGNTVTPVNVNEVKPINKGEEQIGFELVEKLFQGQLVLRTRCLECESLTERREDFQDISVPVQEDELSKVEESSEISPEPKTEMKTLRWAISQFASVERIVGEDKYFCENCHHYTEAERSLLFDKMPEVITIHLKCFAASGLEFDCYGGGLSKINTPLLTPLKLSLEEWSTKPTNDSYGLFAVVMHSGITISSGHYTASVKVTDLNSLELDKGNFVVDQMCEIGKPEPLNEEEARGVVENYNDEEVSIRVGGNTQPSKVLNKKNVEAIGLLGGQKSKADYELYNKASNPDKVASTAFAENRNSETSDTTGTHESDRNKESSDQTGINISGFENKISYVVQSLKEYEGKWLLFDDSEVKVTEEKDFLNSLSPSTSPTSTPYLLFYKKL
# About 910 (0.23%) of roughly 390,000 compounds were called active. The shares of active, inactive and inconclusive entries below differ from those in the screen. Calls come from the whole dose curve; as a rule, active = well fitted inhibition curve with a large enough effect; inconclusive = small, poorly fitted or top-dose-only effect; inactive = no such curve, though single readings can be large or run the other way. A potency beside an inconclusive call is a rough fit, not a confirmed value.
# Biological target: Ubiquitin carboxyl-terminal hydrolase 1 (Homo sapiens) (UniProt O94782)
# Assay: Inhibitors of USP1/UAF1: Primary Screen; note: nearly all actives have a fitted effect of over 60% in size
# Conditions: recombinant USP1/UAF1, Ub-Rhodamine cleavage fluorescence; series mostly up to 57.1 µM
# Method in brief: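 In this screen, compounds sit with the deubiquitinase complex (1nM) for 15 min at room temperature before Ub-Rho is added at 150nM final. Fluorescence rise is then followed for 6 reads every 60 seconds.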
# Potency is the fitted concentration of half-maximal effect.
row,SMILES,Potency
1,CCCCNC(=O)Nc1ccc(C2SCCS2)cc1,inactive
2,CCOc1cc(/C=C(\C#N)C(=O)Nc2ccccn2)ccc1O,"inconclusive: 63.1 µM [inhibitor, single point]"
3,Cc1ccc(NC(=O)CCS(=O)(=O)c2ccc(Br)cc2)c(C)c1,"inconclusive: 6.31 µM [inhibitor, single point]"
4,O=C(NCCCN1CCN(c2ccc(F)cc2)CC1)c1sc2ncccc2c1-n1cccc1,"inconclusive: 50.1 µM [inhibitor, partial curve, poor fit]"
5,C[C@@]12C(=O)N(c3cccc(F)c3)C(=O)N1[C@H](c1ccc(F)cc1)[C@@H]1C(=O)N(C3CCCCC3)C(=O)[C@@H]12,"inconclusive: 0.282 µM [inhibitor, full curve, poor fit]"
6,Cc1cc(/C=C2\Sc3ccccc3N2C)cc(C)[n+]1CC1CCCO1 (configuration not stated),"inconclusive: 25.1 µM [inhibitor, partial curve]"
7,CCc1cc2cc3c(cc2nc1SCC(=O)OC(C)C)OCO3,"inconclusive: 0.398 µM [inhibitor, full curve]"
8,COc1ccc(C(=O)Nc2ccc(C)c(S(=O)(=O)N3CCCCCC3)c2)cc1,"inconclusive: 7.94 µM [inhibitor, partial curve]"
9,COc1ccc(CCn2c(N)c(C#N)c3nc4ccccc4nc32)cc1OC,"inconclusive: 28.2 µM [inhibitor, single point]"
10,CCN(CC)CCn1c2c(c(SCC(=O)Nc3cccc(C(F)(F)F)c3)nc1=O)CCC2,"inconclusive: 0.251 µM [inhibitor, full curve, poor fit]"
11,CCOC(=O)c1[nH]c(C)c(CCC(=O)NC(C)c2ccccc2)c1C (configuration not stated),"inconclusive: 56.2 µM [inhibitor, single point]"
12,Cc1ccc(NC(=O)c2cc(-c3ccc(C)o3)nc3ccccc23)cc1,"inconclusive: 0.562 µM [inhibitor, full curve, poor fit]"
13,CSc1ccc(-c2nc3ncccn3c2Nc2ccc(C)c(C)c2)cc1,"inconclusive: 44.7 µM [inhibitor, single point]"
14,Nc1cc(=O)nc(SCC(=O)Nc2cccc(Cl)c2)n1CCc1ccccc1,inactive
15,COc1ccc(C(=O)NC(=S)N2CCN(c3ccc([N+](=O)[O-])cc3)CC2)cc1,inactive
16,COc1ccc(NC(=O)Nc2ccc(N3CCOCC3)c3nonc23)c(OC)c1,"inconclusive: 8.91 µM [inhibitor, full curve, poor fit]"
17,COc1ccc(C2c3c(c(C)c(C)oc3=O)Oc3c(C)c(C)oc(=O)c32)cc1,"inconclusive: 7.94 µM [inhibitor, partial curve]"
18,O=c1[nH]c2ccc(Cl)cc2c(-c2ccccc2)c1CN1CCOCC1,"inconclusive: 28.2 µM [inhibitor, partial curve]"
19,CN(C)CCN(Cc1ccco1)C(=O)c1oc2ccccc2c1NC(=O)COc1ccccc1,inactive
20,COc1ccc(C2=NN(c3ccc(C=O)cc3)C(c3ccccc3)C2)cc1 (configuration not stated),inactive
21,CCn1nc(C)c(NC(=O)CSc2nnc(-c3ccco3)n2C)c1C,"inconclusive: 31.6 µM [inhibitor, single point]"

# Among those listed so far, these have an NH in an aromatic ring.
row,SMILES,Potency
11,CCOC(=O)c1[nH]c(C)c(CCC(=O)NC(C)c2ccccc2)c1C (configuration not stated),"inconclusive: 56.2 µM [inhibitor, single point]"
18,O=c1[nH]c2ccc(Cl)cc2c(-c2ccccc2)c1CN1CCOCC1,"inconclusive: 28.2 µM [inhibitor, partial curve]"

# More compounds.

row,SMILES,Potency
1,Cc1cc(C2C(C#N)=C(N)Oc3n[nH]c(C)c32)c(C)s1 (configuration not stated),inactive
2,COCCN1CCc2nc(SCC(=O)Nc3ccc(Br)cc3)[nH]c(=O)c2C1,inactive
3,CCOc1ccccc1C=C1SC(=S)NC1=O,"inconclusive: 7.08 µM [inhibitor, single point]"
4,CCN1CCN(c2ccc(S(=O)(=O)N3CCCCC3)cc2NC(=O)c2cccc(OC(F)F)c2)CC1,inactive
5,O=C(O)c1cc(-c2ccc(/C=C3\NC(=O)N(c4ccc(Cl)cc4)C3=O)o2)ccc1Cl,"inconclusive: 44.7 µM [inhibitor, partial curve, poor fit]"
6,Cc1ccc(CNS(=O)(=O)c2cc(C(=O)Nc3cccc(C(F)(F)F)c3)ccc2F)cc1,"inconclusive: 11.2 µM [inhibitor, full curve, poor fit]"
7,COc1ccc(OC)c(N(CC(=O)NN=C2CCN(C)CC2)S(=O)(=O)c2ccccc2)c1,"inconclusive: 2.51 µM [inhibitor, full curve]"
8,COc1cc(N(C(C)=O)c2ccc(O)cc2)c2ncccc2c1,inactive
9,NC(=O)C1(N2CCCCC2)CCN(C(=O)Nc2ccc(C(F)(F)F)cc2)CC1,"inconclusive: 0.398 µM [inhibitor, full curve]"
10,S=c1[nH]nc2n1CCCN2,inactive
11,CCS(=O)(=O)c1ncc(Cl)c(C(=O)N2CCN(c3cccc(Cl)c3)CC2)n1,"inconclusive: 14.1 µM [inhibitor, single point]"
12,COc1ccc(OC)c(NC(=O)CN2C(=O)c3ccccc3Sc3ccc(C(=O)N4CCCC4)cc32)c1,"inconclusive: 1 µM [inhibitor, full curve, poor fit]"
13,COC(=O)[C@H](CC(C)C)NC(=O)Cn1cnc2c(NCc3ccccc3)ncnc21,"inconclusive: 12.6 µM [inhibitor, partial curve, poor fit]"
14,Cc1cc([N+](=O)[O-])ccc1P(=O)(O)c1ccc([N+](=O)[O-])cc1C,inactive
15,COc1cc(/C=N/n2cnc3c(sc4nc(C)cc(C)c43)c2=O)ccc1O,"inconclusive: 7.94 µM [inhibitor, partial curve, poor fit]"
16,COc1ccc(Cn2c(-c3ccc(C)cc3)nc3c(c(=O)c4ccccc4n3C)c2=O)cc1,"inconclusive: 31.6 µM [inhibitor, partial curve]"
17,Cc1ccc2c(c1)c1c(c(=O)n(-c3ccccc3C)c(=O)n1CC(=O)NCc1ccccc1)n2C,"inconclusive: 5.01 µM [inhibitor, partial curve, poor fit]"
18,O=c1cc(-c2ccccc2)c2cc(Cl)c3c(c2o1)CN(Cc1ccccc1)CO3,"inconclusive: 4.47 µM [inhibitor, single point]"
19,COc1ccc(CC(=O)NCc2ccc3c(c2)CCN3C(=O)c2ccc(Cl)cc2)cc1OC,inactive
20,Cc1c(N2CCCC2)cc2c(c1NC(=O)c1ccccc1Cl)C(C)(C)CC2(C)C,"inconclusive: 44.7 µM [inhibitor, partial curve, poor fit]"
21,COCCn1c(=S)[nH]c2cc(C(=O)NCc3ccccc3)ccc2c1=O,"inconclusive: 0.355 µM [inhibitor, full curve, poor fit]"

row,SMILES,Potency
1,O=C(c1ccccc1)c1cc(Cl)ccc1N1C(=O)C=CC1=O,inactive
2,CN(C(=O)C(=O)Nc1ccc2nc3n(c(=O)c2c1)CCCCC3)c1cccc(C(F)(F)F)c1,"inconclusive: 2 µM [inhibitor, full curve, poor fit]"
3,CCC(CO)Oc1cc(NCc2ccc(C(C)(C)C)cc2)c2ncn(C(C)C)c2c1 (configuration not stated),"inconclusive: 50.1 µM [inhibitor, partial curve, poor fit]"
4,COc1ccc(N2CSC3=C(C#N)C(c4cc(OC)ccc4OC)CC(=O)N3C2)c(OC)c1 (configuration not stated),"inconclusive: 28.2 µM [inhibitor, partial curve]"
5,CCc1nc(N2CCN(C(=S)NCCCOC)CC2)c2c3c(sc2n1)CCCC3,"inconclusive: 39.8 µM [inhibitor, partial curve]"
6,O=S(=O)(Nc1nc2n(n1)C(c1ccc(F)cc1)C=C(c1ccccc1)N2)c1ccc(Cl)cc1 (configuration not stated),"inconclusive: 50.1 µM [inhibitor, single point]"
7,CN(CC(=O)Nc1ccc(Cl)cc1)C(=O)Cn1[nH]c(=O)c2ccccc2c1=O,"inconclusive: 100 µM [inhibitor, partial curve, poor fit]"
8,CCc1nnc(NC(=O)C2CCCN2C(=O)Nc2ccccc2)s1 (configuration not stated),"inconclusive: 2.51 µM [inhibitor, full curve, poor fit]"
9,CCOC(=O)C1CCCc2c1[nH]c1ccc(Cl)cc21 (configuration not stated),"inconclusive: 39.8 µM [inhibitor, partial curve]"
10,COc1ccc(CCNc2ccc(C(CC(N)=O)NC(=O)c3ccccc3)cc2[N+](=O)[O-])cc1 (configuration not stated),"inconclusive: 44.7 µM [inhibitor, partial curve, poor fit]"
11,CCN(CC1CCCO1)C(=O)c1cc(COc2ccc(OC)cc2Cl)on1 (configuration not stated),"inconclusive: 44.7 µM [inhibitor, partial curve]"
12,c1cc(N2CCCCC2)nc(N2CCCCC2)n1,"inconclusive: 5.62 µM [inhibitor, partial curve]"
13,CSc1nsc(/C=C/Nc2ccc(F)cc2)c1C#N,"inconclusive: 28.2 µM [inhibitor, partial curve]"
14,CN(C)CC/C=C1\c2ccccc2CSc2ccccc21,"inconclusive: 50.1 µM [inhibitor, partial curve, poor fit]"
15,O=C(CC(O)(CC(=O)OCc1ccccc1)C(=O)OCc1ccccc1)OCc1ccccc1,"inconclusive: 31.6 µM [inhibitor, single point]"
16,CCCCCOc1ccc(/C=C/C(=O)Nc2sc(C(C)=O)c(C)c2C(=O)OCC)cc1OC,"inconclusive: 5.01 µM [inhibitor, single point]"
17,COc1ccc(NS(=O)(=O)c2ccc(C(=O)NCC3(N4CCOCC4)CCCCC3)cc2)cc1,"inconclusive: 7.94 µM [inhibitor, full curve]"
18,Nc1ncnc2c1ncn2[C@@H]1O[C@H](CNCc2ccc(OCC(=O)Nc3ccccn3)cc2)[C@@H](O)[C@H]1O,"inconclusive: 112 µM [inhibitor, partial curve, poor fit]"
19,C/C(=N\NC(=O)c1ccc(Br)cc1)c1cccc(NC(=O)c2cccnc2)c1,inactive
20,O=C(Cn1nc2n(c1=O)-c1ccccc1SC2)N/N=C/c1cccs1,"inconclusive: 0.631 µM [inhibitor, full curve, poor fit]"
